{"source": "patent US20250236667A1", "about": "“ANTIBODIES TO MUTANT CALRETICULIN AND USES THEREOF” (CENTRAL ADELAIDE LOCAL HEALTH NETWORK INC, priority 2021, published 2025)", "key": {"[1]": {"tested_on": "ruxolitinib sensitive TF-1 TpoR CALR^del61 cells", "assay": "Viability during ruxolitinib treatment in the signalling experiment", "format": "cell-based, human", "details": "100 nM, 16 hours"}, "[2]": {"details": "cited from earlier work"}}, "note": "Where two headings read alike, the source gives them in different places. At least one structure is not confirmed: it was looked up by name or label, or the drawing left a doubt.", "data": [{"smiles": "N#CC[C@H](C1CCCC1)n1cc(-c2ncnc3[nH]ccc23)cn1", "note": "[ruxolitinib]", "values": [{"measurement": "viability of ruxolitinib-sensitive cells", "setting": "[1]", "result": "non-viable"}, {"measurement": "response rate", "setting": "[2]; CALR-negative patients, most with JAK2 V617F, confidence interval 24.8-44.1%", "result": 34, "unit": "%"}, {"measurement": "response rate", "setting": "[2]; patients with a CALR mutation, confidence interval 5.7-43.7%", "result": 20, "unit": "%"}]}]}
